Measured values as given in article PMC4944944.

Target: T1, GFP::CHDP-1 (xdIs48, Pchdp-1::GFP::CHDP-1) (C. elegans) (UniProt P91027)
T1 sequence: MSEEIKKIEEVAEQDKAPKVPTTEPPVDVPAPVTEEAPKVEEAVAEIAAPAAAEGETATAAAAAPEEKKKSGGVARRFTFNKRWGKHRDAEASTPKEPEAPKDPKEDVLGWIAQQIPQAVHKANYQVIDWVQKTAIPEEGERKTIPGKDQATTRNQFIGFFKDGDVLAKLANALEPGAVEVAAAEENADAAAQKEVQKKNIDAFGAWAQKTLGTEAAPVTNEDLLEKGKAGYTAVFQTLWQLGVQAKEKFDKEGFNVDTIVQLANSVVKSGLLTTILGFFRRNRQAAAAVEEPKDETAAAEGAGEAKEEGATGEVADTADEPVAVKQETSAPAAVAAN
Test: affinity purification with mass spectrometry; worm lysates (Pchdp-1::GFP::CHDP-1, control Pchdp-1::GFP), GFP polyclonal antibody and protein A agarose, gel bands digested, TripleTOF 5600

binding: binds
Substance: CED-10 of worm lysate (from UniProt Q03206 1-191)

No constants are given. Whether binding was seen depends on the method and setting. In cells and extracts the contact can be indirect. A yes stands for co-enrichment or nearness to the bait. Other partners may have been found. Sequences can lack the tags named with a protein.
